{"sequences": {"note": "By UniProt entry, the sequences of proteins in these tests, tags left out. Where a name states a change or a piece, a line headed by the entry shows the natural chain unless it says otherwise. Chains listed by the source or under a name are the forms on record and can include a tag or linker.", "N-terminal FLAG-tagged mouse MINK1 (misshapen-like kinase 1) (Q9JM52, form named)": "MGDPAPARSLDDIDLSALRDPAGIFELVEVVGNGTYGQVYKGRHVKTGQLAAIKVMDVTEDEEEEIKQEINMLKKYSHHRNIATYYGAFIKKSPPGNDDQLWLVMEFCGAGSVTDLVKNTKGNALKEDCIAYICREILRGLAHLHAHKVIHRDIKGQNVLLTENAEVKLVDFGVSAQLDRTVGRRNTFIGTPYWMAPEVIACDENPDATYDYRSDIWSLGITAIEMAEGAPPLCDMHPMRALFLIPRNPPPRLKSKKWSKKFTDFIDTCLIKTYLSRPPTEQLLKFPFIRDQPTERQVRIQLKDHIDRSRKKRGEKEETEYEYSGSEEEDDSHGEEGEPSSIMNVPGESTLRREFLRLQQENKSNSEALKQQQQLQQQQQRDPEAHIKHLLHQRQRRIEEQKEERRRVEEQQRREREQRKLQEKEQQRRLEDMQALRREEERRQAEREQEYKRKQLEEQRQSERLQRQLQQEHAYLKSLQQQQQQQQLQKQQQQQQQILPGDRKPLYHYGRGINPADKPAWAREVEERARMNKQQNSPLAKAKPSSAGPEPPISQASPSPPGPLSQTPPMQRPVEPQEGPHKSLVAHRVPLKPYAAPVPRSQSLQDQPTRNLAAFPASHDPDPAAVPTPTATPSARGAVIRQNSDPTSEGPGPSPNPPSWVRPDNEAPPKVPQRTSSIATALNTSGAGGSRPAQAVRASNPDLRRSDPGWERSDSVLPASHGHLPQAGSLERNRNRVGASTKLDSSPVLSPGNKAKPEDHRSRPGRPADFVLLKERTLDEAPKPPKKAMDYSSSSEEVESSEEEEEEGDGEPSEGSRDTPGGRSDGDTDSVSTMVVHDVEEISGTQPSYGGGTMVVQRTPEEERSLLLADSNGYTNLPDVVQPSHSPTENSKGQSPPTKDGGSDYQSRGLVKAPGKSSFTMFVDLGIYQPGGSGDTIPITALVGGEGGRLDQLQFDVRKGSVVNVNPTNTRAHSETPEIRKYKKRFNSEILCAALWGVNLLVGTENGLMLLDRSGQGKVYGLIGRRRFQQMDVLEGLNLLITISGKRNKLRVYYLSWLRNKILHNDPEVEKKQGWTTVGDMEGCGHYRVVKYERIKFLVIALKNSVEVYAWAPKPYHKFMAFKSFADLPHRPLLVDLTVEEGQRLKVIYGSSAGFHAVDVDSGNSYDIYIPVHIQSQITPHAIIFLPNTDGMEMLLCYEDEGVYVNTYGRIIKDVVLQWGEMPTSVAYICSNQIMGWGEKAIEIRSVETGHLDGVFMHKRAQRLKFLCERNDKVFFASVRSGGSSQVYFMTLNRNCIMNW", "UniProt P67871": "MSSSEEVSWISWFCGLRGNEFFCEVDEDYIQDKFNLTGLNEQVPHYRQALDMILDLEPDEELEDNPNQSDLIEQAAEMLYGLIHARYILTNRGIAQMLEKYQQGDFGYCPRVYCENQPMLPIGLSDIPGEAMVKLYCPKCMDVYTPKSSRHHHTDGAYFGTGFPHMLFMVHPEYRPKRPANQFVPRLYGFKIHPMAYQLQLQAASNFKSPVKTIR"}, "source": "paper doi:10.1101/2021.09.22.461318", "experiment_in_all_cases": "co-IP", "key": {"[1]": {"molecular_target": "N-terminal FLAG-tagged mouse NRK (NCK-interacting kinase (NIK)-related kinase) (mouse) (UniProt Q9R0G8)"}, "[2]": {"molecular_target": "T1, mNRK^869-1455 (amino acids 869-1455 of mouse NRK) (mouse) (UniProt Q9R0G8)", "T1 sequence": "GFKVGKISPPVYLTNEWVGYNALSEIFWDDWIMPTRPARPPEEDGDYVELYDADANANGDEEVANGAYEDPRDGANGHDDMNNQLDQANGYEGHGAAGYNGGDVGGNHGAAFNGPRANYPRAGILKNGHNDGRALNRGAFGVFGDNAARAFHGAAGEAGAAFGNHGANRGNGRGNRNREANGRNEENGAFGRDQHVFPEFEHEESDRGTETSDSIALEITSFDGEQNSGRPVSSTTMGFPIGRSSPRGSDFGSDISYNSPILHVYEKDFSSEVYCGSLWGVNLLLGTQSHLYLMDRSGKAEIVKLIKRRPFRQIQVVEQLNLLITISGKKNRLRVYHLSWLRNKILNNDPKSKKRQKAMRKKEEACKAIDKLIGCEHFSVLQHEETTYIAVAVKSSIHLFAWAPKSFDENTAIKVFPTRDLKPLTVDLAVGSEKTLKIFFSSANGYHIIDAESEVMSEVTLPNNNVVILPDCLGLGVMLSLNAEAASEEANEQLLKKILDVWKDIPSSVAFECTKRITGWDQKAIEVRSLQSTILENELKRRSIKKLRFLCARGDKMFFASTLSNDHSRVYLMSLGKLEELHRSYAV"}, "[3]": {"molecular_target": "T2, mNRK^1-868 (amino acids 1-868 of mouse NRK) (mouse) (UniProt Q9R0G8)", "T2 sequence": "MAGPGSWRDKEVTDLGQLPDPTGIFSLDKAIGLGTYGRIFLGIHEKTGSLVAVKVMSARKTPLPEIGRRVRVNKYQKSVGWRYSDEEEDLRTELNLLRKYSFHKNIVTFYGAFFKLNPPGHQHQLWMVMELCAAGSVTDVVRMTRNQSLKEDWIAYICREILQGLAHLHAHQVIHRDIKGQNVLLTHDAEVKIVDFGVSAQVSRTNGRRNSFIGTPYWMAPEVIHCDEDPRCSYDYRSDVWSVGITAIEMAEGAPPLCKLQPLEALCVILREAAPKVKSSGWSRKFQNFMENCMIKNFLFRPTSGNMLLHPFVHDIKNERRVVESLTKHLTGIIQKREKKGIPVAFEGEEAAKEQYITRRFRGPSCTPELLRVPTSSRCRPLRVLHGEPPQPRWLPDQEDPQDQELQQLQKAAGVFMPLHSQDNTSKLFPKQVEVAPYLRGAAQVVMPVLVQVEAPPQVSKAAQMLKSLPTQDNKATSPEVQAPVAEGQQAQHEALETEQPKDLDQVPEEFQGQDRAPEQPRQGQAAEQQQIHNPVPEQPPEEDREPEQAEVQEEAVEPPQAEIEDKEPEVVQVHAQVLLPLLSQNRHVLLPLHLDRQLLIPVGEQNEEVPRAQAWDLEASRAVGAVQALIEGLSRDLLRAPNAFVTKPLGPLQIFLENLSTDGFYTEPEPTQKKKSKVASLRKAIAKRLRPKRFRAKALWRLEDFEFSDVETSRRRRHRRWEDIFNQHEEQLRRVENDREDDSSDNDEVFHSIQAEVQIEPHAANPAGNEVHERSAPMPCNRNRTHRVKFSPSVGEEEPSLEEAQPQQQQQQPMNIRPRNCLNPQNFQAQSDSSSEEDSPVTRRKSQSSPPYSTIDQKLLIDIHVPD"}, "[4]": {"molecular_target": "T3, mNRK^565-1455 (amino acids 565-1455 of mouse NRK) (mouse) (UniProt Q9R0G8)", "T3 sequence": "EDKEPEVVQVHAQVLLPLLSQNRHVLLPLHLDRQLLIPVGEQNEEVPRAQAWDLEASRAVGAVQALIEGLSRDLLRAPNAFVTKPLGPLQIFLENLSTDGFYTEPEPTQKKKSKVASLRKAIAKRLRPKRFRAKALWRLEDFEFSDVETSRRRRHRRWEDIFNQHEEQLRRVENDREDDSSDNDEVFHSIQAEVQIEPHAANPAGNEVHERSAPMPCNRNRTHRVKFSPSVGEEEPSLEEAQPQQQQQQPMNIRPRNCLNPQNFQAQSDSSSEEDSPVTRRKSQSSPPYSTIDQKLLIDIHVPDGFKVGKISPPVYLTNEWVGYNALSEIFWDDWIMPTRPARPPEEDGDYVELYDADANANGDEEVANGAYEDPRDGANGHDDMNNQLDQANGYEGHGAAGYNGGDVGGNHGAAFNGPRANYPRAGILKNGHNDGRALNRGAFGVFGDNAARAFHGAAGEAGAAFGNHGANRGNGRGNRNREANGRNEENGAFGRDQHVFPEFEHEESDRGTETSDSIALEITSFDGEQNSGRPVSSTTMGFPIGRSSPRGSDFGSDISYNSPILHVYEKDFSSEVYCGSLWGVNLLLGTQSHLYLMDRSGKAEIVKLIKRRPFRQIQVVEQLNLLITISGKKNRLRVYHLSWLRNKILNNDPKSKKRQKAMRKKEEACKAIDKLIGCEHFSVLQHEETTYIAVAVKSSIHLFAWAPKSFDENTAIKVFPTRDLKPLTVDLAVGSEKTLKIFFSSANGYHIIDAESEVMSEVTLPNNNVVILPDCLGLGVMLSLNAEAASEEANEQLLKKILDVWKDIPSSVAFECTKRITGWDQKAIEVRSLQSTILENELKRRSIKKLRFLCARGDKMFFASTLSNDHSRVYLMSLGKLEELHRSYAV"}, "[5]": {"molecular_target": "T4, mNRK^1-564 (amino acids 1-564 of mouse NRK) (mouse) (UniProt Q9R0G8)", "T4 sequence": "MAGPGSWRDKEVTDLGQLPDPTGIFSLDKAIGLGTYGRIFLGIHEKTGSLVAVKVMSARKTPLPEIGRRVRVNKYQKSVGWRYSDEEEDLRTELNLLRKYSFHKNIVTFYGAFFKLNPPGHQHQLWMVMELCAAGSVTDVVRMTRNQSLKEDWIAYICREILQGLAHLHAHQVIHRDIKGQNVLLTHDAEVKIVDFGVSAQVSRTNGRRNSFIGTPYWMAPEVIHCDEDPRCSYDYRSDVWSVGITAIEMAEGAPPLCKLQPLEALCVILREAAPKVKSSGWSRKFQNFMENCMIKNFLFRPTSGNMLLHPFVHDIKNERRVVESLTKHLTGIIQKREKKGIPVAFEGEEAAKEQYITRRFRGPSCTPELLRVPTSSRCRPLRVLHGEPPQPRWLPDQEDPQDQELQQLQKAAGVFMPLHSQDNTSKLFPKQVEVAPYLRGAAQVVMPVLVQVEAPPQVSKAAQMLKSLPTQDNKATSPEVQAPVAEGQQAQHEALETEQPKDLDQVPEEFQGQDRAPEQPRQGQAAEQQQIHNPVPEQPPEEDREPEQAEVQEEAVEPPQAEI"}, "[6]": {"molecular_target": "N-terminal FLAG-tagged mouse MINK1 (misshapen-like kinase 1) (mouse) (UniProt Q9JM52)"}, "[7]": {"molecular_target": "T5, mNRK^Δ565-868 (mouse NRK mutant lacking aa 565-868) (mouse) (UniProt Q9R0G8)", "T5 sequence": "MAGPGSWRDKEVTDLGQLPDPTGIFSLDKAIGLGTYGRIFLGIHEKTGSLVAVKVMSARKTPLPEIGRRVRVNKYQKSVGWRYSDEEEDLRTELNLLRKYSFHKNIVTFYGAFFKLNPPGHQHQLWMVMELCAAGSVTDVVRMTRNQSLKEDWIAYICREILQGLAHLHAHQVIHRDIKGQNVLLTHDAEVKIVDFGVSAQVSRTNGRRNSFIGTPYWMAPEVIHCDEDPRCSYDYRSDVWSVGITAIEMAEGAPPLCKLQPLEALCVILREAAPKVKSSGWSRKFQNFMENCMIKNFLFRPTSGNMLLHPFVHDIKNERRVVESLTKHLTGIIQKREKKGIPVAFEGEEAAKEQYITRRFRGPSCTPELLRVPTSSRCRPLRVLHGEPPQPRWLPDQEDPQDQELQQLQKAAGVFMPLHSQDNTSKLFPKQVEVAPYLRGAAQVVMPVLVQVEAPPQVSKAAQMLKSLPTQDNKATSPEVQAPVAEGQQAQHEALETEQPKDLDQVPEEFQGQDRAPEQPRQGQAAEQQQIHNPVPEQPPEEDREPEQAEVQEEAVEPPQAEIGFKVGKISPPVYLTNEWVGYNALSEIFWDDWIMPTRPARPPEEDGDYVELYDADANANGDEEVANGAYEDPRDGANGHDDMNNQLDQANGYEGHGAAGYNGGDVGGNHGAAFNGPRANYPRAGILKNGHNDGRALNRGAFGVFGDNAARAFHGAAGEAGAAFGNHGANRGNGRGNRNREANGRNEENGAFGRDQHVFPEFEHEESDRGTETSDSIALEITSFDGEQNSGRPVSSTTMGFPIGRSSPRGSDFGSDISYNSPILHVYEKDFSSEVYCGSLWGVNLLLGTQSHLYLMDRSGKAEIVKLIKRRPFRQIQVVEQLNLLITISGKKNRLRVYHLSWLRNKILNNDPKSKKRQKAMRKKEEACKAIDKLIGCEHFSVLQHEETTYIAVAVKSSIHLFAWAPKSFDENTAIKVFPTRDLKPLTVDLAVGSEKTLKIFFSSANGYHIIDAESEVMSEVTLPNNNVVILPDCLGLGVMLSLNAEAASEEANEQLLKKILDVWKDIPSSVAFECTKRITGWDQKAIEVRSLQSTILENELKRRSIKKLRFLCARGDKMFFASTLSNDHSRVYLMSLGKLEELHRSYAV"}, "[8]": {"molecular_target": "T6, mNRK^Δ832-868 (mouse NRK mutant lacking aa 832-868) (mouse) (UniProt Q9R0G8)", "T6 sequence": "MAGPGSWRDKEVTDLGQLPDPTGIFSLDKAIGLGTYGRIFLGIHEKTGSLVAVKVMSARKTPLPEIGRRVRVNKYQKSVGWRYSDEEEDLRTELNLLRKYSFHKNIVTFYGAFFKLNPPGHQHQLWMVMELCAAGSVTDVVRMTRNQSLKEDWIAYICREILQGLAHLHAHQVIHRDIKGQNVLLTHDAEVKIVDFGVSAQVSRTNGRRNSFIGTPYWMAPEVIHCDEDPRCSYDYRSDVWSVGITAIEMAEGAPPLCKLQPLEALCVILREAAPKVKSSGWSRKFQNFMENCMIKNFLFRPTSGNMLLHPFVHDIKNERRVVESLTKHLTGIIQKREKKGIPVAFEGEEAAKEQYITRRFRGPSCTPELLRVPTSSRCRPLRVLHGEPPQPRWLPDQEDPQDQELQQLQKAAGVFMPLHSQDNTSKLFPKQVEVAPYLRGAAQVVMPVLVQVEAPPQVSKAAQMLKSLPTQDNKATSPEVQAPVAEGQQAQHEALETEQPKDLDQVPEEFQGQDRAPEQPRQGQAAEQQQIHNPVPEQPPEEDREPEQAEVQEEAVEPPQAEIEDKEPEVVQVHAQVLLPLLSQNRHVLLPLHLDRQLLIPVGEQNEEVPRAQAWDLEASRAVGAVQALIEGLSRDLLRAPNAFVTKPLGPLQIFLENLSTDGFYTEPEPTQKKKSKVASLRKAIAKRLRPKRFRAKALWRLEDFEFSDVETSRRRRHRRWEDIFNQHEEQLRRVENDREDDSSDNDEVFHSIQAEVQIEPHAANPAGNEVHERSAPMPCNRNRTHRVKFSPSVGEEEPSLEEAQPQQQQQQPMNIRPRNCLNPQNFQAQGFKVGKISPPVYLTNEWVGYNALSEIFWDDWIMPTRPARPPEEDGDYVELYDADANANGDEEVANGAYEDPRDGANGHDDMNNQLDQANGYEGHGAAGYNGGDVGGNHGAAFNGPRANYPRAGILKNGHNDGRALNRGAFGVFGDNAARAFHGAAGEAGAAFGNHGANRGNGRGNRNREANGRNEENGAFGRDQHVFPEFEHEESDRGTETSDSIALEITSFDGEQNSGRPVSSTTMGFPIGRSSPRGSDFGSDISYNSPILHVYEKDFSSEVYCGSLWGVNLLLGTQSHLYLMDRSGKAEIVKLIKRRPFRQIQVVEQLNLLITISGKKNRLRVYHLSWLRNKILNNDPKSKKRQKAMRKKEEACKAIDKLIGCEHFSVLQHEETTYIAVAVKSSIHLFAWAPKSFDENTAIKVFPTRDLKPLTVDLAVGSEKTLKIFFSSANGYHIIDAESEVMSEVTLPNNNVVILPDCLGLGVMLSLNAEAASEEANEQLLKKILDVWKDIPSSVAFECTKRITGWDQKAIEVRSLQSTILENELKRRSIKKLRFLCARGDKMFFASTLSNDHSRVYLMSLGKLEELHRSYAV"}}, "note": "Results are given in words; binding and its absence hold for the method and conditions named. Binding seen in cells or lysates may run through a third protein. Some binding calls cover weakened binding; strength is not graded here.", "data": [{"substance": "N-terminal myc-tagged mouse CK2β (from UniProt P67871 1-215)", "values": [{"measurement": "binding", "setting": "[1]", "result": "binds"}, {"measurement": "binding", "setting": "[2]", "result": "no binding"}, {"measurement": "binding", "setting": "[3]", "result": "binds"}, {"measurement": "binding", "setting": "[4]", "result": "binds"}, {"measurement": "binding", "setting": "[5]", "result": "no binding"}, {"measurement": "binding", "setting": "[6]", "result": "no binding"}, {"measurement": "binding", "setting": "[7]", "result": "no binding"}, {"measurement": "binding", "setting": "[8]", "result": "binds"}]}]}
